# Measurements: the supplement of paper PMC6411743
# By UniProt entry, the sequences of proteins in these tests, tags left out. Where a name states a change or a piece, a line headed by the entry shows the natural chain unless it says otherwise.
# UniProt P49454: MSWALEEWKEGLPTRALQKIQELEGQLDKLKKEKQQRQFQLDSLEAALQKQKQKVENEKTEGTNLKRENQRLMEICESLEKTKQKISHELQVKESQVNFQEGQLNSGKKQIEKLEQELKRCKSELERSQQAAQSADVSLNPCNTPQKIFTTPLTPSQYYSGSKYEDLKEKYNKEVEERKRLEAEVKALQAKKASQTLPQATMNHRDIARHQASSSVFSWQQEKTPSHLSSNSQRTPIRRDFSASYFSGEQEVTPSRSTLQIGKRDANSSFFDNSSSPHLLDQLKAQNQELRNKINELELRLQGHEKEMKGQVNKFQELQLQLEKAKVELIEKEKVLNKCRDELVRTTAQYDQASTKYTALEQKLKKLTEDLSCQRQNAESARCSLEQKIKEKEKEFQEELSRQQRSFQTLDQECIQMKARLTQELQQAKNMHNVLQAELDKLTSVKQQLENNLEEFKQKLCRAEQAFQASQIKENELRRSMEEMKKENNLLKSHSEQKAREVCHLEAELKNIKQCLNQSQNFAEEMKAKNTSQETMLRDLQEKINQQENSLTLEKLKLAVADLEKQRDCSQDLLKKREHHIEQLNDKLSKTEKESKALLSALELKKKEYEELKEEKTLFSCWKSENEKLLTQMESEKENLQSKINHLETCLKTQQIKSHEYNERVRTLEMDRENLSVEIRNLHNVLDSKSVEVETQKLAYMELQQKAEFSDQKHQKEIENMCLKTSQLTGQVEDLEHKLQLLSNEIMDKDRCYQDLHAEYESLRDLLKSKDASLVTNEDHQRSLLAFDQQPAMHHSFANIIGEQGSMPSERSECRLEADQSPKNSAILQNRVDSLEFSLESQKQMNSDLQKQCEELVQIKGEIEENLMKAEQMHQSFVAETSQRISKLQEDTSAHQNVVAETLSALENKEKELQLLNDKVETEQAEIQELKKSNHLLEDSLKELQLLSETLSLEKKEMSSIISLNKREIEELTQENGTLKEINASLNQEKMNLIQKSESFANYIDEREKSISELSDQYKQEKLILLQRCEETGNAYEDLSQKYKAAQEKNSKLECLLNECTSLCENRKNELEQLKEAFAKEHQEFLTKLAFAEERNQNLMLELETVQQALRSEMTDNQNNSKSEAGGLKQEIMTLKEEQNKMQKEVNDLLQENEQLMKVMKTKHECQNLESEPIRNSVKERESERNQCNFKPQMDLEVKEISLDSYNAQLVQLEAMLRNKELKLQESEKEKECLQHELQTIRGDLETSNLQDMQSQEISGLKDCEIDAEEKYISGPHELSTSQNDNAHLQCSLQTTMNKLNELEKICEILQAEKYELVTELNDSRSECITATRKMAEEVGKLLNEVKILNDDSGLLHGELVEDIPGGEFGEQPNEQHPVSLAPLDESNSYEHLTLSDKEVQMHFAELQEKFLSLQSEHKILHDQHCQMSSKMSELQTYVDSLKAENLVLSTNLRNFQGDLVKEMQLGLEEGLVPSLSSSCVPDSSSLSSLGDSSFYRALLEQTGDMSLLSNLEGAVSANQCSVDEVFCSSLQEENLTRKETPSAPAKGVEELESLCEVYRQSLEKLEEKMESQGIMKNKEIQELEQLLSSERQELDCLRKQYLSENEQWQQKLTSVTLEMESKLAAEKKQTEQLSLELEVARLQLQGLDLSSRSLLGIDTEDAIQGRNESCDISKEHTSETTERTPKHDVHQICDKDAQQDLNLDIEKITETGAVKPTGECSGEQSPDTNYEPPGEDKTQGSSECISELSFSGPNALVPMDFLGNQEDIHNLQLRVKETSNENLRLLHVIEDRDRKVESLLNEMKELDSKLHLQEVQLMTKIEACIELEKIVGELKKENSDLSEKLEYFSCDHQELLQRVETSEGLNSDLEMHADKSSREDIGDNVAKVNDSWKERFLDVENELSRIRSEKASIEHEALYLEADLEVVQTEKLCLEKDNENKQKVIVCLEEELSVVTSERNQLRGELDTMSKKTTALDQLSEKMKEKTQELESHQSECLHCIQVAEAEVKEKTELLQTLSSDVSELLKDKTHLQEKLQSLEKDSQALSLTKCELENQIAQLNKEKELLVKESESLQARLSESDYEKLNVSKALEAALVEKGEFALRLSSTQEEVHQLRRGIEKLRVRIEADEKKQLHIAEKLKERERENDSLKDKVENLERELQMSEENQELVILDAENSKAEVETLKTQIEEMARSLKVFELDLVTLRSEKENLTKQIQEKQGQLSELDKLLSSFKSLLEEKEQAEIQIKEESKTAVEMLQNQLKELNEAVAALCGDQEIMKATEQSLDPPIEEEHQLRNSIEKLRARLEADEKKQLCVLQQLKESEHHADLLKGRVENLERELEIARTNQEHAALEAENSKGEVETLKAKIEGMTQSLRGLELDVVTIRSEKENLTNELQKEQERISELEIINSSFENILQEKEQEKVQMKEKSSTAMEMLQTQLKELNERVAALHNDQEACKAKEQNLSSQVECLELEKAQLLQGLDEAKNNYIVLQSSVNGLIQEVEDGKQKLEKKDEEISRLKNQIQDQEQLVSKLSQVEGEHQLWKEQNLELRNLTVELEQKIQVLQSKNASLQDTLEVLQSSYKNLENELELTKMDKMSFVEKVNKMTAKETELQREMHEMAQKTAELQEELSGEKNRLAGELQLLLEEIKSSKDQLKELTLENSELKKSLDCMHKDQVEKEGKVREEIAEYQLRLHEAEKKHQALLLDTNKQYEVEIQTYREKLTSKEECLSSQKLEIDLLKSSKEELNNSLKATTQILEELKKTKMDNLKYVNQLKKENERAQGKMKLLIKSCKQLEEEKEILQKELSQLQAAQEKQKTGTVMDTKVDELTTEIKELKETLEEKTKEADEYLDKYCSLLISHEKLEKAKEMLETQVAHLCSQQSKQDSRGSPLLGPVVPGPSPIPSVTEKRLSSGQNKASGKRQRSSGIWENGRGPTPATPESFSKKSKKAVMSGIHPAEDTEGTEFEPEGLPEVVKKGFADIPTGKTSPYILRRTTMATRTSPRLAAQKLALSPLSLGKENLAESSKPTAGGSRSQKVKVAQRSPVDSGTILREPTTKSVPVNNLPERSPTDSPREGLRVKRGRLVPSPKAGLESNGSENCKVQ
# UniProt P43378: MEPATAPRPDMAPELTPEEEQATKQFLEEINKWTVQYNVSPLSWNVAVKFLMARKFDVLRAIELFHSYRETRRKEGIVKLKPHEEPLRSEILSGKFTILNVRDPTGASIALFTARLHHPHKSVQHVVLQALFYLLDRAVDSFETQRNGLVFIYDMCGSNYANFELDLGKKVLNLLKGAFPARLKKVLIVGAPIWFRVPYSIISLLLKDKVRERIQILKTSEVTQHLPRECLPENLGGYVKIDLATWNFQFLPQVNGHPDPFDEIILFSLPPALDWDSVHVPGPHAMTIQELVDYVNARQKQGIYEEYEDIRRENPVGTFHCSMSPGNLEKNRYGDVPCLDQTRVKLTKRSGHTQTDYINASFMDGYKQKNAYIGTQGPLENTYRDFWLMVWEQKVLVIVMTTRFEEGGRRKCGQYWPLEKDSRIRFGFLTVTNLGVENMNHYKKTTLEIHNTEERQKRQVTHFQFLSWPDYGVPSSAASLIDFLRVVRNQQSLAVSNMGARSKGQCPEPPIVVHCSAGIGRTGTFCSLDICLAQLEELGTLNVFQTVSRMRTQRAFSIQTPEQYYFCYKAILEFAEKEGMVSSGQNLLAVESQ
# UniProt P51692: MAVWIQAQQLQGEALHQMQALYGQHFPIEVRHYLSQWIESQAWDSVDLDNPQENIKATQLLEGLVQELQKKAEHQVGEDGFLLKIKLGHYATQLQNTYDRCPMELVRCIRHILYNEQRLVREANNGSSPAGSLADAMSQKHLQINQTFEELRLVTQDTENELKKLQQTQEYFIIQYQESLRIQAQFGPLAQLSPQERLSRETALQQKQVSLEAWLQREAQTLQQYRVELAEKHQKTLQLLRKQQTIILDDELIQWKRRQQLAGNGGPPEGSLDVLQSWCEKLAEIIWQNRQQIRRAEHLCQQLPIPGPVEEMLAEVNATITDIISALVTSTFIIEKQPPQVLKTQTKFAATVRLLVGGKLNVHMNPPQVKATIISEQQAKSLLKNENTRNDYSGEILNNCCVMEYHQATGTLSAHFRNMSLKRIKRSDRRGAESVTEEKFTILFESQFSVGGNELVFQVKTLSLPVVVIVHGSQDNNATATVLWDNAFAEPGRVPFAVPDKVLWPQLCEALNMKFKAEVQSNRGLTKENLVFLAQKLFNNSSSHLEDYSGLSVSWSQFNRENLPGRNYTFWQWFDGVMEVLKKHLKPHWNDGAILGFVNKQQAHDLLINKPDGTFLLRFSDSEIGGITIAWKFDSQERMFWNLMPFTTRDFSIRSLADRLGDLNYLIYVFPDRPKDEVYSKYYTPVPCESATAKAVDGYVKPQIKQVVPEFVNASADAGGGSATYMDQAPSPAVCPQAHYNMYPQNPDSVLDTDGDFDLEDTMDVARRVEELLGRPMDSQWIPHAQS
# UniProt P50454: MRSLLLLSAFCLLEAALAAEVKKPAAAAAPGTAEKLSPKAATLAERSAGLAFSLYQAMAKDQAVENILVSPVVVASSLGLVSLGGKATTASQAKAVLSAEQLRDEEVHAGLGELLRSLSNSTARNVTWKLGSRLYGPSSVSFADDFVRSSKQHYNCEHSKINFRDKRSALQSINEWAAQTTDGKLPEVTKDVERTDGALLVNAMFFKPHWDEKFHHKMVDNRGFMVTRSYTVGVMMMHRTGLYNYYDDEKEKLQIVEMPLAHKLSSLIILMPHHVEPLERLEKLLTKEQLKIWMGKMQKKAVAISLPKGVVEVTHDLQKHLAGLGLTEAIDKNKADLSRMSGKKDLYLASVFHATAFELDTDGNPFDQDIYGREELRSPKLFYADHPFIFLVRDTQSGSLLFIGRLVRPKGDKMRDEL
# UniProt P35914: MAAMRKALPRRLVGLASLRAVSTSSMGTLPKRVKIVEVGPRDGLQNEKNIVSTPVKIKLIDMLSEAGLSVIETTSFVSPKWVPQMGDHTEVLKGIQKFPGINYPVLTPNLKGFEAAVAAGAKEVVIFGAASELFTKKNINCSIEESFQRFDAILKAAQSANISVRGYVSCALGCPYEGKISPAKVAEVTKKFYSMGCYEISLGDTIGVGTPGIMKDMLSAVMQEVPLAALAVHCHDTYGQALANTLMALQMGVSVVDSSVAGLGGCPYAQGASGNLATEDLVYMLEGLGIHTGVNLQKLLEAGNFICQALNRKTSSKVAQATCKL
# UniProt P51649: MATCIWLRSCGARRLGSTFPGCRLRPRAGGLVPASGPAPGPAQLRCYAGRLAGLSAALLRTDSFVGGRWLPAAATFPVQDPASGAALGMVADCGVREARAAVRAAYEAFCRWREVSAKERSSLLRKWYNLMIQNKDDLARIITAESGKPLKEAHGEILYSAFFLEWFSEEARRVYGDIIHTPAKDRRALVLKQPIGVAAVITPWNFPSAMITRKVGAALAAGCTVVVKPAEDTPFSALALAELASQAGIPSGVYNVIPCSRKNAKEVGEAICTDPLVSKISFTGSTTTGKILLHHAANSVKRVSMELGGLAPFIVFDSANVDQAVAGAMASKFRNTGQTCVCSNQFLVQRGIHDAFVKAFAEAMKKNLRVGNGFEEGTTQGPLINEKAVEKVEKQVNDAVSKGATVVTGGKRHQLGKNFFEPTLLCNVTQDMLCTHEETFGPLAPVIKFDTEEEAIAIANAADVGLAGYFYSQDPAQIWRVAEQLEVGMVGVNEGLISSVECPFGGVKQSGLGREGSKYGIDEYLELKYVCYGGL
# UniProt P48735: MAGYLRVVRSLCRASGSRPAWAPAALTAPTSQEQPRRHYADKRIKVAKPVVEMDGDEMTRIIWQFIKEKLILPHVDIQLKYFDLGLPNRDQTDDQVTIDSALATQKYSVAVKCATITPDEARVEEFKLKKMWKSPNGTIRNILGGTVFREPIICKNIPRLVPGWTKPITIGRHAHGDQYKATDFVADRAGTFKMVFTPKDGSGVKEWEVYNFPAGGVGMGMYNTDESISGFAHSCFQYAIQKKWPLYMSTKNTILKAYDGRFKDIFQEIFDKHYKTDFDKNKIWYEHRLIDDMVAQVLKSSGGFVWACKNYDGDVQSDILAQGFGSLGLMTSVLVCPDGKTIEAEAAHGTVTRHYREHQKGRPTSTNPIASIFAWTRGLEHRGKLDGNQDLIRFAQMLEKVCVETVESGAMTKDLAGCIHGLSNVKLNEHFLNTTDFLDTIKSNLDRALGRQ
# UniProt P51149, whole entry: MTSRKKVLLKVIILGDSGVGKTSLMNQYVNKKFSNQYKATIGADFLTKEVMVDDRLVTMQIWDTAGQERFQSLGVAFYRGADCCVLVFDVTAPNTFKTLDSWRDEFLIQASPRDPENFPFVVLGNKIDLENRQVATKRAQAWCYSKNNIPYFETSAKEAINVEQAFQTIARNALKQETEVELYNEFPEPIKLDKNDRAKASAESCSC
# UniProt P47813, whole entry: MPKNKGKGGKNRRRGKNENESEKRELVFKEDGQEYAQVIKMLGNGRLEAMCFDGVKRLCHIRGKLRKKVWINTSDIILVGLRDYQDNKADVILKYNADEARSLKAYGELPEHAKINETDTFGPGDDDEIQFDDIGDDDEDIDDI
# ± gives the standard deviation of the averaged measurements. This is a selection; strong and weak results do not stand in their true shares. Most entries show no effect beyond the scatter of the controls.
# Compound: Nc1ncnc2c1ncn2[C@@H]1O[C@H](COP(=O)(O)OP(=O)(O)OP(=O)(O)O)[C@@H](O)[C@H]1O [adenosine triphosphate]
# Experiment: NP40-soluble protein abundance relative to vehicle (solubility fold change) (ratio); higher = more soluble protein in presence of ATP
# In short: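 Values are fold changes against the detergent-processed vehicle, based on vsn-normalised intensities. Jurkat crude lysate was treated at eight concentrations from 0.1 to 10 mM (10 min at room temperature, then 3 min at 37 °C), solubilised with 0.8% NP40 and benzonase, ultracentrifuged and analysed by TMT-labelled LC-MS/MS over three independent experiments.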
Target,NP40-soluble protein abundance (concentration: 0.1mM),NP40-soluble protein abundance (concentration: 0.5mM)
GNL1 (UniProt P36915),1.07 ± 0.028,1.04 ± 0.041
UniProt P49023-2,1.01 ± 0.014,1.01 ± 0.027
KPNA1 (UniProt P52294),1.03 ± 0.026,1.09 ± 0.063
CENPF (UniProt P49454),0.993 ± 0.018,1.01 ± 0.06
UniProt P46783 and related entries,0.971 ± 0.11,0.924 ± 0.099
UniProt P51148 and related entries,1.03 ± 0.056,1.04 ± 0.048
UniProt P40337-2|P40337-3,0.844 ± 0.12,0.854 ± 0.19
PTPN9 (UniProt P43378),1.06 ± 0.071,1.11 ± 0.078
RAB9A (UniProt P51151),1.05 ± 0.033,1.01 ± 0.091
STAT5B (UniProt P51692),1.04 ± 0.022,1.02 ± 0.017
UniProt P49840,1.02 ± 0.018,1.04 ± 0.027
NOTCH1 (UniProt P46531),1.01 ± 0.018,0.976 ± 0.067
UniProt P51608-2,0.9758 ± 0.0089,1.04 ± 0.035
UniProt P48729 and related entries,1.05 ± 0.075,1.08 ± 0.071
UniProt P51531 and related entries,0.987 ± 0.095,1.04 ± 0.069
SERPINH1 (UniProt P50454),1.01 ± 0.011,1.02 ± 0.014
HMGCL (UniProt P35914),0.971 ± 0.015,0.949 ± 0.024
SLC26A2 (UniProt P50443),1.02 ± 0.11,0.973 ± 0.11
NUP153 (UniProt P49790),0.982 ± 0.016,0.993 ± 0.07
CASP3 (UniProt P42574),1.04 ± 0.11,1.03 ± 0.061

Target,NP40-soluble protein abundance (concentration: 0.1mM),NP40-soluble protein abundance (concentration: 0.5mM)
QARS (UniProt P47897),1.02 ± 0.035,1.04 ± 0.043
KPNA2 (UniProt P52292),1.03 ± 0.05,1.06 ± 0.045
ST13 (UniProt P50502),0.931 ± 0.051,0.876 ± 0.067
UniProt P49720,0.894 ± 0.071,0.876 ± 0.12
UniProt P36542 and related entries,0.995 ± 0.039,0.985 ± 0.019
UniProt P48739 and related entries,1.03 ± 0.085,1.05 ± 0.057
CETN2 (UniProt P41208),0.767 ± 0.22,0.759 ± 0.22
PPM1F (UniProt P49593),1.03 ± 0.026,1 ± 0.054
HLCS (UniProt P50747),1.05 ± 0.096,0.995 ± 0.07
NUDT2 (UniProt P50583),0.997 ± 0.012,0.984 ± 0.075
UniProt P52630 and related entries,1.06 ± 0.062,1.01 ± 0.056
UniProt P51649 and related entries,1.03 ± 0.032,1.04 ± 0.063
IDH2 (UniProt P48735),0.954 ± 0.15,1.038 ± 0.0008
UniProt P51149,1.05 ± 0.082,1.04 ± 0.059
ETV3 (UniProt P41162),0.896 ± 0.045,1.06 ± 0.039
POLD2 (UniProt P49005),1.05 ± 0.021,1.04 ± 0.059
RFX3 (UniProt P48380),1.02 ± 0.087,1.02 ± 0.066
RABIF (UniProt P47224),1.06 ± 0.062,0.993 ± 0.044
TUFM (UniProt P49411),1.07 ± 0.085,1.1 ± 0.071
ARHGDIA (UniProt P52565),0.979 ± 0.055,1.02 ± 0.042

Target,NP40-soluble protein abundance (concentration: 0.1mM),NP40-soluble protein abundance (concentration: 0.5mM)
UniProt P46108 and related entries,1.06 ± 0.038,1.04 ± 0.046
UniProt P47813,0.911 ± 0.038,0.872 ± 0.046
FEN1 (UniProt P39748),1.01 ± 0.02,1.01 ± 0.042
EIF2B2 (UniProt P49770),1 ± 0.043,0.9607 ± 0.0019
RPL21 (UniProt P46778),0.919 ± 0.13,0.943 ± 0.1
GCLM (UniProt P48507),0.9574 ± 0.0067,0.934 ± 0.026
DAP3 (UniProt P51398),0.972 ± 0.1,1.02 ± 0.12
UniProt P48634 and related entries,0.987 ± 0.038,1.06 ± 0.048
PRIM1 (UniProt P49642),0.976 ± 0.056,1.01 ± 0.041
UniProt P42224 and related entries,1.04 ± 0.069,1.04 ± 0.054
RPL4 (UniProt P36578),0.953 ± 0.095,0.959 ± 0.14
CAPZA1 (UniProt P52907),1.02 ± 0.015,1.04 ± 0.062
FASN (UniProt P49327),1.05 ± 0.082,1.02 ± 0.017
UniProt P42331-4|P42331,1.02 ± 0.012,1.02 ± 0.06
ZAP70 (UniProt P43403),1.06 ± 0.077,1.08 ± 0.082
CDKN2C (UniProt P42773),0.849 ± 0.14,0.807 ± 0.21
UniProt P46736-2|P46736,1.06 ± 0.036,1.06 ± 0.073
CPOX (UniProt P36551),1.04 ± 0.022,1.04 ± 0.06
GTF2A2 (UniProt P52657),0.819 ± 0.14,0.822 ± 0.21
UniProt P49754 and related entries,1.05 ± 0.14,0.985 ± 0.089

# Two records drawn at random from the list so far, as already listed:
Target,NP40-soluble protein abundance (concentration: 0.1mM),NP40-soluble protein abundance (concentration: 0.5mM)
UniProt P46108 and related entries,1.06 ± 0.038,1.04 ± 0.046
FASN (UniProt P49327),1.05 ± 0.082,1.02 ± 0.017
